Assay [1] concerns the target cynomolgus monkey CD3 epsilon 1-26_Fc fusion protein (cynomolgus monkey). Put plainly: SPR, human IgG1 format, graded relative to chimeric SP34; one grade for human and cynomolgus protein.
Assay [2] addresses human CD3 epsilon 1-26_Fc fusion protein (human). Described as above.
Assay [3] concerns the target cynomolgus monkey CD3 epsilon 1-26_Fc fusion protein (cynomolgus monkey). Briefly: scFv-Fc format; SPR on CD3 epsilon 1-26 Fc by paragraph 181.
Assay [4] concerns the target human CD3 epsilon 1-26_Fc fusion protein (human). The description is as above.
Assay [5] deals with soluble extracellular region of cynomolgus monkey CD38 antigen fused to a 6-His-tag (cynomolgus monkey) (UniProt Q5VAN0). Put plainly: SPR, antibody on the chip, CD38 extracellular domain injected (concentration not given). In general terms: SPR reads the build-up and loss of mass on a sensor chip optically.
The target of assay [6] is soluble extracellular region of human CD38 fused to a 6-His-tag (human) (UniProt P28907). The description is as above.
The target is the same in assay [7]. Put plainly: SPR, antibody immobilized on the chip, human CD38 extracellular domain injected as control.
Assay [8] addresses soluble extracellular region of cynomolgus monkey CD38 antigen fused to a 6-His-tag (cynomolgus monkey) (UniProt Q5VAN0). Put plainly: SPR (FIG. 24).
Assay [9] has as its target soluble extracellular region of human CD38 fused to a 6-His-tag (human) (UniProt P28907). Briefly: SPR, antibody immobilized, human CD38 extracellular domain injected as control.
Assay [10] shares this target. Put plainly: SPR, antibody captured on protein G chip, human CD38-His injected at 0.1 to 25 nM.
Assay [11] has the same target. Briefly: SPR, captured antibody (inset on the sheet shows Protein A, legend paragraph 60 says protein G), human CD38-His injected at 0.1 to 50 nM.

Amino acid sequences for entries named in this document (tags omitted). A change or cut given only in a name is not applied to a line headed by its entry.
UniProt Q5VAN0: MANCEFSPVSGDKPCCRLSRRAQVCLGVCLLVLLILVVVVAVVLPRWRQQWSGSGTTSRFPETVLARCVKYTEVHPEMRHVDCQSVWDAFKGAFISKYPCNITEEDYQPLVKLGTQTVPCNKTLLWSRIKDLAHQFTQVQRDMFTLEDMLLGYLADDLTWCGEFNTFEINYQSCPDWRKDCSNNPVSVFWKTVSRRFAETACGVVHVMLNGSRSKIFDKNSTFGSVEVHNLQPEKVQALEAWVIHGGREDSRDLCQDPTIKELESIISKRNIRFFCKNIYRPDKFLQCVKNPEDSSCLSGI
UniProt P28907: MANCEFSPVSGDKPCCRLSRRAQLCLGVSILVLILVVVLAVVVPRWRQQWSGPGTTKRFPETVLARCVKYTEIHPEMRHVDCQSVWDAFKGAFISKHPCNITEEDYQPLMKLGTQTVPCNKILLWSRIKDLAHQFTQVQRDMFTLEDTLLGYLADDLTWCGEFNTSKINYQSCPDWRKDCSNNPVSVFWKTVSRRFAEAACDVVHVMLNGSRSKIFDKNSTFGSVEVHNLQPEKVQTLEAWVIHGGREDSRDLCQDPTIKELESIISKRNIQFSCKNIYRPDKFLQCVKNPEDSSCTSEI

Where a chain is given by its changes, count along the chain named. Numbers in names are those of the source. No constants are given. Whether binding was seen depends on the method and setting. Some binding calls cover weakened binding; strength is not graded here. For some assays here: Where a sequence is shown, tags or fusion partners need not be part of it.

B1: VH1/VL4 (antibody, V domains shown)
VH: EVQLVESGGGLVQPGGSLRLSCAASGFTFNTYAMNWVRQAPGKGLEWVARIRSKYNNYATYYADSVKGRFTISRDDSKNTLYLQMNSLRAEDTAVYYCVRHGNFGNSYVSWFAYWGQGTTVTVSS
VL: EAVVTQSATLSVSPGERATLSCRSSTGAVTTSNYANWVQEKPGQAFRGLIGGANKRAPGVPARFSGSLSGDEATLTISSLQSEDFAVYFCALWYSNLWVFGQGTKLEIKR
Turning to B1, the binding result in assay [1] and in assay [2] was “binds” throughout.

B2: SP34 H1L21 scFv-Fc with T29A in the light chain (scFv, name in Kabat numbering, V domains shown)
VH: B1 VH
VL: EIVVTQSPATLSVSPGERATLSCRSSTGAVTASNYANWVQEKPGQAFRGLIGGANKRAPGVPARFSGSLSGDEATLTISSLQSEDFAVYYCALWYSNLWVFGQGTKLEIK
Regarding B2, the binding result in [3] and in [4] was “binds” each time.

B3: humanized 9G7 antibody (best-fit version) as used in Example 10 (antibody, human IgG1, kappa, V domains shown)
VH: QVTLKESGPTLVKPTQTLTLTCTFSGLSLSTSGKGVGWIRQPPGKALEWLAHIWWDDDKRYNPALKSRLTITKDTSKNQVVLTMTNMDPVDTATYYCARIELGRSYVMDYWGQGTLVTVSS
VL: DIQMTQSPSSLSASVGDRVTITCQASQDVITSVAWFQQKPGKAPKLLIYSASYRYTGVPSRFSGSGSGTDFTFTISSLQPEDIATYYCQQHYTIPLTFGQGTKLEIKR
With B3, the binding result in assay [5], in assay [6], in assay [7], in assay [8] and in assay [9] was “binds” each time.

B4: humanized 9G7 best-fit antibody (antibody, human IgG1, kappa, V domains shown)
VH: B3 VH
VL: B3 VL with F36Y
In the case of B4, the binding result in assay [10] is listed as “binds”.

B5: humanized 9G7 best-framework antibody (antibody, human IgG1, kappa, V domains shown)
VH: EVQLVESGGGLVQPGGSLRLSCAFSGLSLSTSGKGVGWIRQAPGKGLEWLAHIWWDDDKRYNPALKSRLTISKDTSKNTVYLQMNSLRAEDTAVYYCARIELGRSYVMDYWGQGTLVTVSS
VL: B3 VL with Q24R, F73L, I83F, L104V
As for B5, the binding entry in assay [11] is “binds”.

The values above are taken from patent US20190135918A1.
